Measurements reported in PubChem BioAssay AID1053208 (Peter MacCallum Cancer Centre, 2014)
Screen: 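Find knock-downs that sensitise mouse osteosarcoma cells to doxorubicin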 (primary screen). Cells: mouse osteosarcoma cells, early-passage culture from an engineered mouse model of fibroblastic bone tumour. Reagent: siRNA pool against mouse genes, 40 nM. Time to read-out: about 120 h (48 h before drug, then 72 h with drug). Challenge: doxorubicin 100 nM for 72 h, roughly 30-40% inhibitory dose. Detection: 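Luminescent ATP signal taken as viability with or without 100 nM doxorubicin for 72 h; mean of two wells set against non-targeting siRNA and turned into robust z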. Reading the numbers: viability z-score with doxorubicin: higher = more viable cells under doxorubicin; viability z-score without drug: higher = more viable cells with knock-down alone. Active means: 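a pool counts as active when its viability z-score with doxorubicin is -2 or below and its z-score without drug lies between -2 and 2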.
The whole screen tested about 17,000 reagents; this is a part drawn at random. 788 of them (4.7%) count as active. 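Calls rest on z-score classes alone; an extra cut-off of viability at most 70% of control was not applied to them.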 Some reagents were tested in more than one well and are listed for each. Further read-outs or replicates are left out here.

Mapre3 (microtubule-associated protein, RP/EB family, member 3) scored combined z-score class no change with or without drug; viability z-score with doxorubicin 0.9; viability z-score without drug -0.17; inactive.
Knock-down of Slc25a48 came out at: combined z-score class no change with or without drug; viability z-score with doxorubicin -0.11; viability z-score without drug 1.18; inactive.
With knock-down of Itgb3 (integrin beta 3), the record shows combined z-score class no change with or without drug; viability z-score with doxorubicin -0.45; viability z-score without drug 1.01; inactive.
For Spin1 (spindlin 1), the entry reads combined z-score class no change with or without drug; viability z-score with doxorubicin 1.8; viability z-score without drug -0.51; inactive.
After knock-down of Mcl1 (myeloid cell leukemia sequence 1) the results were combined z-score class no change with or without drug; viability z-score with doxorubicin -0.45; viability z-score without drug -0.17; inactive.
After knock-down of Rrm2 (ribonucleotide reductase M2) the results were combined z-score class low cell count with doxorubicin only; viability z-score with doxorubicin -3.37; viability z-score without drug -1.69; active.
Against Hdgfl2 (HDGF like 2) the deposit lists combined z-score class no change with or without drug; viability z-score with doxorubicin -0.67; viability z-score without drug 0; inactive.
With knock-down of Trim59 (tripartite motif-containing 59), the screen gave combined z-score class no change with or without drug; viability z-score with doxorubicin 0.67; viability z-score without drug 0.84; inactive.
Against Zfp691 (zinc finger protein 691), the entry reads combined z-score class high cell count with doxorubicin only; viability z-score with doxorubicin 3.04; viability z-score without drug 1.85; inactive.
Depletion of Vmn1r218 (vomeronasal 1 receptor 218) resulted in: combined z-score class no change with or without drug; viability z-score with doxorubicin -1.57; viability z-score without drug -0.84; inactive.

Hits (from the list above):
Rrm2 (ribonucleotide reductase M2) — combined z-score class = low cell count with doxorubicin only; viability z-score with doxorubicin = -3.37; viability z-score without drug = -1.69; Outcome = active

Further reagents follow:
For Erfe (erythroferrone), the values are combined z-score class no change with or without drug; viability z-score with doxorubicin -1.8; viability z-score without drug -0.51; inactive.
For Cox7a1 (cytochrome c oxidase subunit 7A1), the values are combined z-score class high cell count with and without drug; viability z-score with doxorubicin 2.02; viability z-score without drug 2.53; inactive.
Grin2a (glutamate receptor, ionotropic, NMDA2A (epsilon 1)) scored combined z-score class no change with or without drug; viability z-score with doxorubicin 0.22; viability z-score without drug -0.34; inactive.
Depletion of Haus7 (HAUS augmin-like complex, subunit 7) came out at: combined z-score class no change with or without drug; viability z-score with doxorubicin -0.22; viability z-score without drug 1.18; inactive.
Slc25a23 showed combined z-score class no change with or without drug; viability z-score with doxorubicin -1.46; viability z-score without drug 1.18; inactive.
Tcam1 (testicular cell adhesion molecule 1) gave combined z-score class no change with or without drug; viability z-score with doxorubicin 1.57; viability z-score without drug 0.34; inactive.
Silencing of Irak1 (interleukin-1 receptor-associated kinase 1) gave: combined z-score class no change with or without drug; viability z-score with doxorubicin -0.45; viability z-score without drug -1.01; inactive.
Sema5b gave combined z-score class no change with or without drug; viability z-score with doxorubicin -0.22; viability z-score without drug 0.67; inactive.
Silencing of 9530080O11Rik (RIKEN cDNA 9530080O11 gene) came out at: combined z-score class no change with or without drug; viability z-score with doxorubicin -0.22; viability z-score without drug -0.51; inactive.
Hspb3 (heat shock protein family B (small) member 3) gave combined z-score class no change with or without drug; viability z-score with doxorubicin 0.9; viability z-score without drug 0.17; inactive.
For Agk (acylglycerol kinase), the entry reads combined z-score class no change with or without drug; viability z-score with doxorubicin -1.35; viability z-score without drug 0.17; inactive.
After knock-down of Agk (acylglycerol kinase) the results were combined z-score class no change with or without drug; viability z-score with doxorubicin -1.35; viability z-score without drug -0.67; inactive.
Api5 (apoptosis inhibitor 5) gave combined z-score class low cell count with doxorubicin only; viability z-score with doxorubicin -2.59; viability z-score without drug -0.84; active.
After knock-down of Pnkp (polynucleotide kinase 3'- phosphatase), the screen gave combined z-score class no change with or without drug; viability z-score with doxorubicin 0.67; viability z-score without drug 0.67; inactive.
Rhbdd1 (rhomboid domain containing 1) showed combined z-score class no change with or without drug; viability z-score with doxorubicin -1.8; viability z-score without drug 0.17; inactive.
After knock-down of Npffr1 (neuropeptide FF receptor 1), the screen gave combined z-score class no change with or without drug; viability z-score with doxorubicin 0.11; viability z-score without drug 0.51; inactive.
After knock-down of Trmt10b (tRNA methyltransferase 10B), the screen gave combined z-score class no change with or without drug; viability z-score with doxorubicin -1.12; viability z-score without drug 0.51; inactive.
Depletion of Psma4 (proteasome subunit alpha 4) resulted in: combined z-score class low cell count with and without drug; viability z-score with doxorubicin -4.27; viability z-score without drug -3.04; inactive.
